The values below come from patent publication US8933245B2, “Preservation of ergothioneine” (ELC Management LLC, priority 2009, dated 2015).

The nature of data set [1]: Formation of fishy amine odor by boiling ergothioneine with sodium hydroxide or other components. The class given is physicochemical. The protocol:
This became the assay system used to test agents and procedures for reduction or prevention of the odor.
Four samples of a 5 ml ergothioneine solution at 0.1% (w/v) were prepared in glass test tubes with screw caps. To the first was added 5 ml of water, to the second 5 ml of 0.2% (w/v) sodium metabisulfite, to the third 4 ml of water and 1 ml of 1N sodium hydroxide, and to the fourth 5 ml of 0.2% (w/v) citric acid. […] The samples were boiled for 10 minutes and each one was smelled.
This allowed the testing of methods to inhibit the formation of the odor and to suppress the odor after formation.

A short description of data set [2]: Preventing trimethylamine odor by addition of compounds before heating ergothioneine with sodium hydroxide. The following applies: scale 0 (no odor) to 3 (strong fishy trimethylamine odor), three testers averaged. The class given is physicochemical. The protocol: Samples were prepared in glass tubes with screw caps with about 0.05% (w/v) ergothioneine in water, a test sample, at the indicated concentration, and 0.1N NaOH (except for the first tube, in which NaOH was omitted as a negative control). The pH of each sample was determined by litmus paper, and then the tubes capped and placed in a boiling water bath for 10 minutes. The tubes were then cooled to room temperature, and then each one was uncapped and smelled by three testers, each of whom scored the odor. The scores were converted to a scale of 0 (no odor) to 3 (strong fishy trimethylamine odor) and then averaged.

The mark [3] stands for this setting: 5 ml 0.1% ergothioneine plus 5 ml addition (0.2% sodium metabisulfite; 4 ml water + 1 ml 1N sodium hydroxide; 0.2% citric acid), boiled 10 minutes.
Setting [4] is: test sample 0.01% added before boiling.
The mark [5] stands for this setting: test sample 0.05% added before boiling.
The mark [6] stands for this setting: test sample 0.2% added before boiling.

Turning to `O=C(O)CC(O)(CC(=O)O)C(=O)O` [citric acid], the odor after boiling entry in data set [1] (setting [3]) was “None of the other tubes had this odor”. The Odor stood at 2.33 in data set [2] (setting [4]), 2.00 in data set [2] (setting [5]) and 0.00 in data set [2] (setting [6]).

Regarding `O=C1O[C@H]([C@@H](O)CO)C(O)=C1O` [ascorbic acid], the Odor in data set [2] (setting [4]) stood at 1.33; in data set [2] (setting [5]), 1.67; in data set [2] (setting [6]) it was 0.00.

Turning to `Cl` [Hydrochloric acid], the Odor in data set [2] (test sample 0.0001% added before boiling) and in data set [2] (setting [4]) was 0.67 each time.

As for `O=S([O-])S(=O)(=O)[O-].[Na+].[Na+]` [sodium metabisulfite], the odor after boiling entry in data set [1] (setting [3]) is on record as “None of the other tubes had this odor”. The Odor in data set [2] (setting [4]) is 1.67; in data set [2] (setting [5]), 1.00; in data set [2] (setting [6]), 0.00.

On to `[Na+].[OH-]` [sodium hydroxide], for which the odor after boiling result in data set [1] (setting [3]) is “had the fishy, amine odor”.

As for `O=P(O)(O)O` [phosphoric acid], the Odor in data set [2] (setting [4]) amounted to 1.33; in data set [2] (setting [5]) it was 0.33; in data set [2] (setting [6]), 0.00.

Turning to `C[N+](C)(C)[C@@H](Cc1c[nH]c(=S)[nH]1)C(=O)[O-]` [ergothioneine], the odor after boiling entry in data set [1] (2 mM (0.046%) ergothioneine boiled with 0.1 N NaOH (pH 11.5) for 10 minutes) is reported as “fishy, amine odor”.

On to `OB(O)O` [boric acid], for which the Odor in data set [2] (setting [4]) stood at 1.33; in data set [2] (setting [5]), 1.33; in data set [2] (setting [6]) it was 0.00.
